# Results taken from the supplement of paper PMC8728848.
# The list shows a part of the results.
# Experiments:
# Assay in all cases: glycan array binding signal (z-score within array); higher = stronger binding
# Settings in all cases: glycan notation: IUPAC condensed, linker removed
# [1] = molecular target: Man(a1-2)Man(a1-3)[Man(a1-2)Man(a1-6)]Man(a1-6)[Man(a1-2)Man(a1-2)Man(a1-3)]Man
# In short: (§1)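 The binding signal is a Z-score computed within each array. Data were drawn from 3228 arrays in the Consortium for Functional Glycomics database, restricted to those with a known protein sequence. Scores were averaged over arrays of the same protein sequence at different concentrations or buffers, and over linkers, and negative values can be taken as non-binding.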
# [2] = molecular target: Man(a1-2)Man(a1-3)[Man(a1-2)Man(a1-6)]Man(a1-6)[Man(a1-2)Man(a1-2)Man(a1-3)]Man(b1-4)GlcNAc(b1-4)GlcNAc
# In short: as §1
# [3] = molecular target: Man(a1-2)Man(a1-3)[Man(a1-6)]Man(a1-6)[Man(a1-2)Man(a1-3)]Man(b1-4)GlcNAc(b1-4)GlcNAc
# In short: as §1
# [4] = molecular target: Man(a1-2)Man(a1-6)[Man(a1-3)]Man(a1-6)[Man(a1-2)Man(a1-2)Man(a1-3)]Man
# In short: as §1
# [5] = molecular target: Man(a1-2)Man(a1-6)[Man(a1-3)]Man(a1-6)[Man(a1-2)Man(a1-2)Man(a1-3)]Man(b1-4)GlcNAc(b1-4)GlcNAc
# In short: as §1
# [6] = molecular target: Man(a1-3)[Man(a1-6)]Man
# In short: as §1
# [7] = molecular target: Man(a1-3)[Man(a1-6)]Man(a1-6)[Man(a1-2)Man(a1-3)]Man(b1-4)GlcNAc(b1-4)GlcNAc
# In short: as §1
# [8] = molecular target: Man(a1-3)[Man(a1-6)]Man(a1-6)[Man(a1-3)]Man
# In short: as §1
# [9] = molecular target: Man(a1-3)[Man(a1-6)]Man(a1-6)[Man(a1-3)]Man(b1-4)GlcNAc(b1-4)GlcNAc
# In short: as §1
# [10] = molecular target: Man(a1-3)[Man(a1-6)]Man(b1-4)GlcNAc(b1-4)GlcNAc
# In short: as §1
# [11] = molecular target: Man(a1-3)[Man(a1-6)]Man(b1-4)GlcNAc(b1-4)[Fuc(a1-6)]GlcNAc
# In short: as §1
# [12] = molecular target: Man(a1-6)Man
# In short: as §1
# [13] = molecular target: Man(b1-4)GlcNAc
# In short: as §1
# [14] = molecular target: MurNAc(b1-4)GlcNAc
# In short: as §1
# [15] = molecular target: Neu5Ac(a2-3)Gal
# In short: as §1
# [16] = molecular target: Neu5Ac(a2-3)Gal(b1-3)GalNAc
# In short: as §1
# [17] = molecular target: Neu5Ac(a2-3)Gal(b1-3)GalNAc(b1-3)Gal(a1-4)Gal(b1-4)Glc
# In short: as §1
# [18] = molecular target: Neu5Ac(a2-3)Gal(b1-3)GalNAc(b1-4)[Neu5Ac(a2-3)]Gal(b1-4)Glc
# In short: as §1
# [19] = molecular target: Neu5Ac(a2-3)Gal(b1-3)GalNAc(b1-4)[Neu5Ac(a2-8)Neu5Ac(a2-3)]Gal(b1-4)Glc
# In short: as §1
# [20] = molecular target: Neu5Ac(a2-3)Gal(b1-3)GalNAc6S
# In short: as §1
# [21] = molecular target: Neu5Ac(a2-3)Gal(b1-3)GlcNAc
# In short: as §1
# [22] = molecular target: Neu5Ac(a2-3)Gal(b1-3)GlcNAc(b1-2)Man
# In short: as §1
# [23] = molecular target: Neu5Ac(a2-3)Gal(b1-3)GlcNAc(b1-2)Man(a1-3)[GlcNAc(b1-4)][Neu5Ac(a2-3)Gal(b1-3)GlcNAc(b1-2)Man(a1-6)]Man(b1-4)GlcNAc(b1-4)GlcNAc
# In short: as §1
# [24] = molecular target: Neu5Ac(a2-3)Gal(b1-3)GlcNAc(b1-2)Man(a1-3)[Neu5Ac(a2-3)Gal(b1-3)GlcNAc(b1-2)Man(a1-6)]Man(b1-4)GlcNAc(b1-4)GlcNAc
# In short: as §1
# [25] = molecular target: Neu5Ac(a2-3)Gal(b1-3)GlcNAc(b1-3)Gal(b1-3)GlcNAc
# In short: as §1
# [26] = molecular target: Neu5Ac(a2-3)Gal(b1-3)GlcNAc(b1-3)Gal(b1-4)GlcNAc
# In short: as §1
# [27] = molecular target: Neu5Ac(a2-3)Gal(b1-3)GlcNAc(b1-3)GalNAc
# In short: as §1
# [28] = molecular target: Neu5Ac(a2-3)Gal(b1-3)GlcNAc(b1-4)Gal(b1-4)Glc
# In short: as §1
# [29] = molecular target: Neu5Ac(a2-3)Gal(b1-3)GlcNAc(b1-6)GalNAc
# In short: as §1
# [30] = molecular target: Neu5Ac(a2-3)Gal(b1-3)GlcNAc6S
# In short: as §1
# [31] = molecular target: Neu5Ac(a2-3)Gal(b1-3)[Fuc(a1-4)]GlcNAc
# In short: as §1
# [32] = molecular target: Neu5Ac(a2-3)Gal(b1-3)[Fuc(a1-4)]GlcNAc(b1-3)Gal(b1-3)[Fuc(a1-4)]GlcNAc
# In short: as §1
# [33] = molecular target: Neu5Ac(a2-3)Gal(b1-3)[Fuc(a1-4)]GlcNAc(b1-3)Gal(b1-4)[Fuc(a1-3)]GlcNAc
# In short: as §1
# [34] = molecular target: Neu5Ac(a2-3)Gal(b1-3)[GlcNAc(b1-6)]GalNAc
# In short: as §1
# [35] = molecular target: Neu5Ac(a2-3)Gal(b1-3)[Neu5Ac(a2-6)]GalNAc
# In short: as §1
# [36] = molecular target: Neu5Ac(a2-3)Gal(b1-3)[Neu5Ac(a2-6)]GlcNAc(b1-3)[Fuc(a1-3)[Gal(b1-4)]GlcNAc(b1-6)]Gal(b1-4)Glc
# In short: as §1
# [37] = molecular target: Neu5Ac(a2-3)Gal(b1-3)]Neu5Ac(a2-3)Gal(b1-4)]GlcNAc
# In short: as §1
binder,measurement,setting,value
"Clec18Av1 (Homo sapiens), A5D8T8 (protein) MLHPETSPGRGHLLAVLLALLGTAWAEVWPPQLQEQAPMAGALNRKESFLLLSLHNRLRSWVQPPAADMRRLDWSDSLAQLAQARAALCGTPTPSLASGLWRTLQVGWNMQLLPAGLVSFVEVVSLWFAEGQRYSHAAGECARNATCTHYTQLVWATSSQLGCGRHLCSAGQAAIEAFVCAYSPRGNWEVNGKTIVPYKKGAWCSLCTASVSGCFKAWDHAGGLCEVPRNPCRMSCQNHGRLNISTCHCHCPPGYTGRYCQVRCSLQCVHGRFREEECSCVCDIGYGGAQCATKVHFPFHTCDLRIDGDCFMVSSEADTYYRARMKCQRKGGVLAQIKSQKVQDILAFYLGRLETTNEVIDSDFETRNFWIGLTYKTAKDSFRWATGEHQAFTSFAFGQPDNHGFGNCVELQASAAFNWNDQRCKTRNRYICQFAQEHISRWGPGS",glycan array binding signal (z-score),[1],-0.565
same,glycan array binding signal (z-score),[2],0.46
same,glycan array binding signal (z-score),[3],1.03
same,glycan array binding signal (z-score),[4],-0.869
same,glycan array binding signal (z-score),[5],-0.42
same,glycan array binding signal (z-score),[6],-0.551
same,glycan array binding signal (z-score),[7],0.298
same,glycan array binding signal (z-score),[8],1.19
same,glycan array binding signal (z-score),[9],0.055
same,glycan array binding signal (z-score),[10],-0.777
same,glycan array binding signal (z-score),[11],0.672
same,glycan array binding signal (z-score),[12],0.038
same,glycan array binding signal (z-score),[13],-0.825
same,glycan array binding signal (z-score),[14],-0.861
same,glycan array binding signal (z-score),[15],-0.849
same,glycan array binding signal (z-score),[16],-0.846
same,glycan array binding signal (z-score),[17],-0.26
same,glycan array binding signal (z-score),[18],0.146
same,glycan array binding signal (z-score),[19],-0.136
same,glycan array binding signal (z-score),[20],-0.865
same,glycan array binding signal (z-score),[21],-0.459
same,glycan array binding signal (z-score),[22],0.043
same,glycan array binding signal (z-score),[23],-0.451
same,glycan array binding signal (z-score),[24],-0.558
same,glycan array binding signal (z-score),[25],-0.858
same,glycan array binding signal (z-score),[26],-0.814
same,glycan array binding signal (z-score),[27],-0.601
same,glycan array binding signal (z-score),[28],-0.857
same,glycan array binding signal (z-score),[29],1.43
same,glycan array binding signal (z-score),[30],-0.859
same,glycan array binding signal (z-score),[31],-0.839
same,glycan array binding signal (z-score),[32],-0.017
same,glycan array binding signal (z-score),[33],-0.49
same,glycan array binding signal (z-score),[34],-0.848
same,glycan array binding signal (z-score),[35],-0.814
same,glycan array binding signal (z-score),[36],-0.12
same,glycan array binding signal (z-score),[37],-0.844
